Experimental data as given in article PMC10764326.
No constants are given. Whether binding was seen depends on the method and setting. Binding seen in cells or lysates may run through a third protein. Some results given as binding are weak or reduced against the parent protein; the word gives no strength.

Amino acid sequences for entries named in this document (tags omitted).
UniProt Q3TKT4: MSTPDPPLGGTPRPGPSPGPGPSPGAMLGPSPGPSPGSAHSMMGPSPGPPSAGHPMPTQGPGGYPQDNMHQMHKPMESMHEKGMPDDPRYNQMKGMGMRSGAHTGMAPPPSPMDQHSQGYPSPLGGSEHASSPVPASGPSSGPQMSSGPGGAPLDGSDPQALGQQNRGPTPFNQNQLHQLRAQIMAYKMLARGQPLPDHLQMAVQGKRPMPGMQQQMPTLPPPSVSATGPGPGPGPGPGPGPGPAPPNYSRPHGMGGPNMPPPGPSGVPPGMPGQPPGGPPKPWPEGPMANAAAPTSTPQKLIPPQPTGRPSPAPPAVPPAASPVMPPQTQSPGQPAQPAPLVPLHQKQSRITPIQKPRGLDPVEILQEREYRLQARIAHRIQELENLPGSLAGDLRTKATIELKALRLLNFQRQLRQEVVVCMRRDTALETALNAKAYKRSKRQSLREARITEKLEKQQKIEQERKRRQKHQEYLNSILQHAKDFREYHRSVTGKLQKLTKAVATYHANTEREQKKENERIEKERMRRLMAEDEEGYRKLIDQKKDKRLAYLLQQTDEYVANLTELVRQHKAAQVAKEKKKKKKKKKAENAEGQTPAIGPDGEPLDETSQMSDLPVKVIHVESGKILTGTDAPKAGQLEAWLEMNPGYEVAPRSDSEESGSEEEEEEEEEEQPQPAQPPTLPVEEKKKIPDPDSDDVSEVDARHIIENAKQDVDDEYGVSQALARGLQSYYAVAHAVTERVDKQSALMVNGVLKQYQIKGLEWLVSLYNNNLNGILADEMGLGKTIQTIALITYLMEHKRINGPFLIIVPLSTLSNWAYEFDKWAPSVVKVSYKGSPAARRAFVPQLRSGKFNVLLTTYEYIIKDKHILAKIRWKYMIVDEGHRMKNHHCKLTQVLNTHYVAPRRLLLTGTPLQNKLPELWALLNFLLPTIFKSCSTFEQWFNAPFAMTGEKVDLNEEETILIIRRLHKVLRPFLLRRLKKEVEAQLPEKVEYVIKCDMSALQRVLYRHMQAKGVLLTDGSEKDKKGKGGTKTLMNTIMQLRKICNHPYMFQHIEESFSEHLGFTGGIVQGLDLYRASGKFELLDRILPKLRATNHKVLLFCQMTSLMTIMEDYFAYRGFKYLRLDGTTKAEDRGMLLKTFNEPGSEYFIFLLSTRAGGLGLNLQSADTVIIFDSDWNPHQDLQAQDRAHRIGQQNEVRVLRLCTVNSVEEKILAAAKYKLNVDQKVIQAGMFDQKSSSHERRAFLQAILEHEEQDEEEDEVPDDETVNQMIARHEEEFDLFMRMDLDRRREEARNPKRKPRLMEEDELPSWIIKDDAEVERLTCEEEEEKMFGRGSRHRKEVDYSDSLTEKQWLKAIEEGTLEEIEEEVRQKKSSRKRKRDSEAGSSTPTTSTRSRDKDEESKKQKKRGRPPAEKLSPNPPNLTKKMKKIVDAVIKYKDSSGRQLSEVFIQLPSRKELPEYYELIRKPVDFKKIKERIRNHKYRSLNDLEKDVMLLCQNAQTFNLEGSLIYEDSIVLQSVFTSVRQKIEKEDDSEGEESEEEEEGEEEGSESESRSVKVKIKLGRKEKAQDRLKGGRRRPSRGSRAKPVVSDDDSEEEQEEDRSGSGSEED
UniProt P42227: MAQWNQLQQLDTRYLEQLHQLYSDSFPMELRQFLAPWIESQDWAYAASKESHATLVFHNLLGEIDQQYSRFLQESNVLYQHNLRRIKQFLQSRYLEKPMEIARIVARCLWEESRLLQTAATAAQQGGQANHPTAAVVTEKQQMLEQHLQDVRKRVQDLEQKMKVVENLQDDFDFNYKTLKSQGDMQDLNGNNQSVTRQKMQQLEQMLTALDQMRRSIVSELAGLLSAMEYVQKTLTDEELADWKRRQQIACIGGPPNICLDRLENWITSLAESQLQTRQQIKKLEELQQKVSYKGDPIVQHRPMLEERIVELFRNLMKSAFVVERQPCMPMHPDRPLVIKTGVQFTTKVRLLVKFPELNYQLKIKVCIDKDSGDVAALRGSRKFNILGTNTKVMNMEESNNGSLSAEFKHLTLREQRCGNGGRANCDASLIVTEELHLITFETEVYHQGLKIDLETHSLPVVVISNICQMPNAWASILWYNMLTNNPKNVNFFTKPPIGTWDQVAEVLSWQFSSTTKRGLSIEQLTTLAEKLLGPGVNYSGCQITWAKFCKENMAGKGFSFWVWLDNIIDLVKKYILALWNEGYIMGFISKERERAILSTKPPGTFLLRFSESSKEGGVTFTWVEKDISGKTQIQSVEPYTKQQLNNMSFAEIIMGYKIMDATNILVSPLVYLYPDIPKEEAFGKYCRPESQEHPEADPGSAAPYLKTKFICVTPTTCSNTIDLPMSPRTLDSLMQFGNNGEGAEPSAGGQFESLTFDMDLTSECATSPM
UniProt P35710: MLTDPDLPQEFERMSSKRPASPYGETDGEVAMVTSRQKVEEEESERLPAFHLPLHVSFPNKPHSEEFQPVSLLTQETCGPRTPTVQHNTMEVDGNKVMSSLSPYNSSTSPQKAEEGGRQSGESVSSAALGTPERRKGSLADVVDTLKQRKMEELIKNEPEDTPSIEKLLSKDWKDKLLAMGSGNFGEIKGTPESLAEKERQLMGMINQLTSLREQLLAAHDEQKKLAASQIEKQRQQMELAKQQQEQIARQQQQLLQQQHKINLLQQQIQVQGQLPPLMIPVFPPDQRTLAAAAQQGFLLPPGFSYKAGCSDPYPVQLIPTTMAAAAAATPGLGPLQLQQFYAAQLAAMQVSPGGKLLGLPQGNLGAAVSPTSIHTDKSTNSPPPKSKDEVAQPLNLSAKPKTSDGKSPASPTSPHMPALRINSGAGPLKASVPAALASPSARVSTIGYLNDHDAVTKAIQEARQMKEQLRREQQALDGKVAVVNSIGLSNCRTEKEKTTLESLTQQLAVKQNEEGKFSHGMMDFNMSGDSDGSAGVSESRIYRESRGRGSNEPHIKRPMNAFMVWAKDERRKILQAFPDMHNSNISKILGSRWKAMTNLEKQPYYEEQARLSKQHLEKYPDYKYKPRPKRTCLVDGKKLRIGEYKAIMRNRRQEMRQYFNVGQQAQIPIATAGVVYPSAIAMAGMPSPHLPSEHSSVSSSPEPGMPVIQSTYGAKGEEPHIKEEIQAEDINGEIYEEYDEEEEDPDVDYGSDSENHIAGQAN

Columns and labels:
[1] = biological target: Myc-tagged BRG1 (brahma-related gene 1; SMARCA4) (UniProt Q3TKT4); assay: co-IP; transfected HeLa cells (Myc-BRG1, Flag-SOX-5, HA-STAT3); IP and IB with the indicated tag antibodies (anti-Myc, anti-HA, anti-Flag)
[2] = biological target: BRG1 (brahma-related gene 1; SMARCA4) in Th17 cells (mouse (endogenous in Th17 cells)) (UniProt Q3TKT4); assay: co-IP; whole-cell lysates from Th17 cells; IP with anti-BRG1 antibody or control mouse IgG, IB with anti-STAT3 or anti-SOX-5

For “HA-tagged STAT3 (signal transducer and activator of transcription 3) (from UniProt P42227 1-770)”, the binding [1] was “binds”.
For “SOX-5 (SRY-box transcription factor 5) in Th17 cells (from UniProt P35710 1-763)”, the binding [2] was “binds”.
With “Flag-tagged SOX-5 (SRY-box transcription factor 5) (from UniProt P35710 1-763)” the binding [1] was “binds”.
For “STAT3 (signal transducer and activator of transcription 3) in Th17 cells (from UniProt P42227 1-770)”, the binding [2] was “binds”.
